## Library screening results

Measurements from “University of Dundee, Small-Polar-MMV Screening Library” (2021), ChEMBL document CHEMBL3988442.

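Viability assay of Plasmodium falciparum sporozoites; the read-out is not stated. The concentration is filed as 10 mM, unlikely as a test dose, so the dose is not known. Direction is inferred from retests: higher values go with lower viability. Strong results were mostly tested again. About 34,000 compounds were tested under these conditions; 0.84% (about 280) showed 50% or more at least once.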

Results are given as percent effect. The controls that fix the scale are not given in the record; negative values are as filed. Compounds were drawn at random from those tested, without regard to their results. Two or more numbers in one place are separate tests of the same structure; such repeats can differ widely.

structure: FC(F)(F)c1cc(C2CCCN(c3ncccn3)C2)n2ccnc2n1 (centres unmarked)
effect: 6.975%

structure: CCOC(=O)CNC(=O)c1cccnc1Sc1cc(OC)ccc1OC
effect: -12.95%

structure: CC(O)(CN1CCN(CCO)CC1)c1cccc(C(F)(F)F)c1 (centres unmarked)
effect: 10.26%

structure: Cc1cnc(N2CCc3c(CNc4ccnc(C)n4)cncc3C2)nc1.Cl
effect: 12.24%

structure: Cc1cn2c(n1)CCC(NC(=O)CCOc1cccc(F)c1)C2 (centres unmarked)
effect: -13.48%

structure: CC(C)c1cc(N2CCC(N)CC2)n2nccc2n1
effect: -3.015%

structure: O=C(O)C(F)(F)F.[H][C@@]12COC[C@]1([H])[C@@H](OCc1cccnc1)CN2C(=O)NC(C)C
effect: -6.228%

structure: O=C(c1cncc(N2CCC(O)(CO)CC2)n1)N1CCCC1
effect: -7.082%

structure: Cc1cc2n(n1)CC(CNCc1ccc(OCC3CC3)nc1)CN2 (centres unmarked)
effect: -507%

structure: CC(C)c1nn(C)c(N(C)C)c1CNCc1ccnn1C
effect: -3.2%

structure: CCOc1ncccc1CNCc1c(C(C)C)nn(C)c1N(C)C
effect: 6.58%

structure: Cc1nc(CN2CCCC(CCc3ccc(F)cc3F)C2)c[nH]1 (centres unmarked)
effect: 7.173%

structure: CCOCCCC(=O)NCCC(=O)N1CCN(c2ccccn2)CC1
effect: 11.16%

structure: Cc1c(C)c2c(c(C)c1O)CC[C@](C)(C(=O)O)O2
effect: -10.14%

structure: CCc1nc2n(n1)CC(NCC(=O)Nc1oc(C)c(C)c1C#N)CC2 (centres unmarked)
effect: 1.312%

structure: Cc1ccc2c(c1)nc1n2[C@@H](CNC(=O)c2ccccn2)COC1
effect: 3.689% and 4.195%

structure: O=C(O)C(F)(F)F.O=C(O)C(F)(F)F.O=C(O)C(F)(F)F.[H][C@@]12CO[C@@H](CN3CCN(C)CC3)[C@]1([H])CCN(CCc1ccccc1)C2
effect: 9.359%

structure: CC(=O)N1CCN(c2cc(-c3ccccc3)nc3c(C)c(C)nn23)CC1
effect: -13.94%

structure: O=C(NCCOc1ccc(F)c(F)c1)NCc1cccc(CO)c1
effect: -19.88%

structure: Cl.O=C(Cn1c(-c2ccco2)cc2cccnc21)N1CCCC1
effect: 3.488%

structure: CN(C)CCNC(=O)c1cc(-c2cnc(N3CCOCC3)nc2)cn1C.O=C(O)C(F)(F)F
effect: 12.11%

structure: O=C(O)C1(Cc2cc(-c3ccc(F)cc3)no2)CCOCC1
effect: 8.728%

structure: Cc1cnn(CC2CCCCN2C(=O)c2ccnc(N(C)C)c2)c1 (centres unmarked)
effect: -20.58%

structure: Cc1nc(C2CCCN2CC(=O)NCCOc2cccc(F)c2)no1 (centres unmarked)
effect: 0.4571%

structure: Cc1ccc(CN(C)C(=O)CN2CCCC(Cn3cncn3)C2)cc1 (centres unmarked)
effect: -0.6478%

structure: CC(=O)N[C@@H]1CN(C(=O)c2cccc(C)c2)C[C@H]1O
effect: 15.01%

structure: NS(=O)(=O)NCc1cc(-c2ccco2)n(CC(F)(F)F)n1
effect: 17.87%

structure: CCc1nc2n(n1)CC(NCC(=O)Nc1cc(C(C)(C)C)no1)CC2 (centres unmarked)
effect: 8.995%

structure: Cc1nc(N2CCN(C)CC2)ncc1C(=O)N1CCN(C)CC1
effect: 10.12%

structure: O=C(NCC1CC1)C1CCC2(CCN(C(=O)c3ccccn3)CC2)O1.O=C(O)C(F)(F)F (centres unmarked)
effect: 0.9206%

structure: COCCC(=O)N1CCCN(Cc2nccn2C(C)C)CC1
effect: 9.219%

structure: Cc1noc(C)c1CS(=O)(=O)CC(=O)N1CCc2sccc2C1
effect: 2.096%

structure: Cc1ccccc1C1CCN(CCn2cc(-c3cccc(O)c3)nn2)C1 (centres unmarked)
effect: -9.306% and -3.96%

structure: Cc1c(C)n2c(SCC(=O)N3CCCC3)nnc2[nH]c1=O
effect: -24.71% and -15.57%

structure: O=C1CC2(CCN(c3nncs3)C2)CN1c1ccc2c(c1)OCCO2 (centres unmarked)
effect: 12.54%

structure: CC(=O)Nc1nc(C(=O)N2CCCC2Cn2cc(C)cn2)cs1 (centres unmarked)
effect: -13.18%

structure: COc1ccccc1CC(=O)NS(=O)(=O)c1ccc(C#N)cc1
effect: -7.467%

structure: CN(Cc1cncnc1)Cc1cn2c(n1)CN(C1CCOC1)CC2.O=C(O)C(F)(F)F.O=C(O)C(F)(F)F (centres unmarked)
effect: -2.489%

structure: CC(c1cccc(S(N)(=O)=O)c1)N(C)CCc1ccccc1 (centres unmarked)
effect: 5.689%

structure: CO[C@@H]1CCN(Cc2nccn2C)[C@H]1Cc1cccnc1.O=C(O)C(F)(F)F.O=C(O)C(F)(F)F
effect: 9.764%

structure: CC(C)NC(=O)C1CCN(c2nc3nc[nH]c(=O)c3s2)CC1
effect: 4.304%

structure: Cn1cc(N2CCCC(NCc3cccc4c3OCCCO4)C2)cn1 (centres unmarked)
effect: 11.2%

structure: O=C(Nc1cccc(OCc2ccc(F)cc2)c1)C1COCCO1 (centres unmarked)
effect: -2.79%

Once more, the final 5:

| structure | effect |
|---|---|
| `CC(c1cccc(S(N)(=O)=O)c1)N(C)CCc1ccccc1` (centres unmarked) | 5.689% |
| `CO[C@@H]1CCN(Cc2nccn2C)[C@H]1Cc1cccnc1.O=C(O)C(F)(F)F.O=C(O)C(F)(F)F` | 9.764% |
| `CC(C)NC(=O)C1CCN(c2nc3nc[nH]c(=O)c3s2)CC1` | 4.304% |
| `Cn1cc(N2CCCC(NCc3cccc4c3OCCCO4)C2)cn1` (centres unmarked) | 11.2% |
| `O=C(Nc1cccc(OCc2ccc(F)cc2)c1)C1COCCO1` (centres unmarked) | -2.79% |